# According to article PMC5996148:
# Several values for one entry are separate records, joined by “and”; a condition that tells them apart may be missing. Equal entries are not always repeated. The list shows a part of the results.
# How the values were obtained:
# Experiment in all cases: protein microarray (ProtoArray v5.0), streptavidin-Alexa Fluor 647
# Details in all cases: 3'-biotin; 20 mM Tris (pH 7.5), 5 mM MgCl2, 100 mM KCl, 0.1% Tween-20, A/T-rich and random oligonucleotide blockers; temperature not stated; high values mean tight binding
# Importin-4 (human) = system: Importin-4 (human)
# [1] = system: Inhibitor of growth protein 4 (human)
# [2] = system: Inorganic pyrophosphatase 2, mitochondrial (human)
# [3] = system: Insulin-degrading enzyme (human)
# Integrin beta-7 (human) = system: Integrin beta-7 (human)
# [4] = system: Interferon alpha-1/13 (human)
# [5] = system: Interferon alpha-14 (human)
# [6] = system: Interferon alpha-4 (human)
# [7] = system: Interferon-induced guanylate-binding protein 2 (human)
# [8] = system: Interleukin-1 family member 10 (human)
sequence,measurement,setting,value
GGGAGGCTGAGGCAGG [G4-1 biotinylated (PQS2)],binding signal,Importin-4 (human),-0.335 z-score
same,binding signal,[1],-0.36 z-score
same,binding signal,[2],-0.309 z-score
same,binding signal,[3],-0.296 z-score
same,binding signal,Integrin beta-7 (human),-0.326 z-score
same,binding signal,[4],-0.344 z-score
same,binding signal,[5],-0.308 z-score
same,binding signal,[6],-0.337 z-score and -0.357 z-score
same,binding signal,[7],-0.359 z-score
same,binding signal,[8],-0.305 z-score

# An excerpt of these results, bar-delimited.
sequence | measurement | setting | value
GGGAGGCTGAGGCAGG [G4-1 biotinylated (PQS2)] | binding signal | [4] | -0.344 z-score
same | binding signal | [5] | -0.308 z-score
